Earlier results in patent US8445016B2, “Grafted polymers and uses thereof” (Interface Biologics, Inc., priority 2006, dated 2013).
At least one structure is not confirmed: it was looked up by name or label, or the drawing left a doubt.

Details: anti-inflammatory and immunosuppressant glucocorticoid

## C[C@@H]1C[C@H]2[C@@H]3CCC4=CC(=O)C=C[C@]4(C)[C@@]3(F)[C@@H](O)C[C@]2(C)[C@@]1(O)C(=O)CO [dexamethasone]
  potency relative to hydrocortisone: about 40 times
